Source: PubChem BioAssay AID330 (DTP/NCI, 2004)
The list is a part of this screen's results and no random one: it is rich in T/C values a quarter to a half above the control, in often repeated tests (any T/C) and in doses without a T/C. Further doses and runs are listed elsewhere. T/C is the treated group as % of the vehicle group. Some doses have a count of surviving animals in place of a T/C: the source files T/C as zero there, which appears to mark a toxic dose or a test without result, not a measured value. Some survivor counts are full or nearly so, which does not show that the dose was tolerated: survival well below the control is almost never listed, so the zero probably covers shortened survival too. Survivors were counted at the toxicity check, usually on the fifth day, unless a day is given; later deaths do not show. Schedules are NCI's codes, taken here to give the interval after Q, in days (D) or hours (H), and the number of doses after X. Some entries were tested several times; the values are given in rising order. For survival time, this PubChem deposit counts one and a half times the control or more as active, and values a quarter to a half above the control carry no call in these data; other NCI protocols may use other cut-offs. Some T/C values carry the count of animals alive at the toxicity check (mostly the fifth day); without a count, all were alive then.

Test system: P388 leukemia ip, CD2F1 mice, survival T/C
Assay: NCI In Vivo Anticancer Drug Screen. Data for tumor model P388 Leukemia (intraperitoneal) in CD2F1 (CDF1) mice
Settings: T/C endpoint: median survival time, higher T/C = longer survival
[1] = dose: 100.0 mg/kg/injection, schedule: Q01DX009 (ip), vehicle: saline
[2] = dose: 100.0 mg/kg/injection, schedule: Q04DX003 (ip), vehicle: saline with Tween-80
[3] = dose: 200.0 mg/kg/injection, schedule: Q01DX009 (ip), vehicle: saline with Tween-80
[4] = dose: 200.0 mg/kg/injection, schedule: Q01DX005 (ip), vehicle: saline with Tween-80

## Oc1cccc2c1[O][Sb][O]2
dose: 8.0 mg/kg/injection, schedule: Q01DX009 (ip), vehicle: Klucel (hydroxypropylcellulose) (HPC)
  T/C: 129 % of control
dose: 8.0 mg/kg/injection, schedule: Q03HX008 (ip), vehicle: Klucel (hydroxypropylcellulose) (HPC)
  survivor count: 6 of 10
dose: 8.0 mg/kg/injection, schedule: Q03HX016 (ip), vehicle: Klucel (hydroxypropylcellulose) (HPC)
  survivor count: 5 of 10
dose: 16.0 mg/kg/injection, schedule: Q01DX009 (ip), vehicle: Klucel (hydroxypropylcellulose) (HPC)
  T/C: 133 % of control [9 of 10 alive]
dose: 16.0 mg/kg/injection, schedule: Q03HX008 (ip), vehicle: Klucel (hydroxypropylcellulose) (HPC)
  survivor count: 0 of 10
dose: 16.0 mg/kg/injection, schedule: Q03HX016 (ip), vehicle: Klucel (hydroxypropylcellulose) (HPC)
  survivor count: 1 of 10
dose: 16.0 mg/kg/injection, schedule: Q03HX024 (ip), vehicle: Klucel (hydroxypropylcellulose) (HPC)
  survivor count: 0 of 10
dose: 25.0 mg/kg/injection, schedule: Q01DX009 (ip), vehicle: saline
  T/C: 142 % of control
dose: 25.0 mg/kg/injection, schedule: Q04DX003 (ip), vehicle: saline with Tween-80
  T/C: 136 % of control
dose: 32.0 mg/kg/injection, schedule: Q01DX009 (ip), vehicle: Klucel (hydroxypropylcellulose) (HPC)
  T/C: 133 % of control
dose: 32.0 mg/kg/injection, schedule: Q03HX008 (ip), vehicle: Klucel (hydroxypropylcellulose) (HPC)
  survivor count: 0 of 10
dose: 32.0 mg/kg/injection, schedule: Q03HX016 (ip), vehicle: Klucel (hydroxypropylcellulose) (HPC)
  survivor count: 0 of 10
dose: 32.0 mg/kg/injection, schedule: Q03HX024 (ip), vehicle: Klucel (hydroxypropylcellulose) (HPC)
  survivor count: 0 of 10
dose: 32.0 mg/kg/injection, schedule: Q04DX003 (ip), vehicle: Klucel (hydroxypropylcellulose) (HPC)
  T/C: 131 % of control [8 of 10 alive]
dose: 32.0 mg/kg/injection, schedule: Q08DX002 (ip), vehicle: Klucel (hydroxypropylcellulose) (HPC)
  T/C: 131 % of control [9 of 10 alive]
dose: 50.0 mg/kg/injection, schedule: Q04DX003 (ip), vehicle: saline with Tween-80
  T/C: 136 % of control
dose: 64.0 mg/kg/injection, schedule: Q01DX009 (ip), vehicle: Klucel (hydroxypropylcellulose) (HPC)
  T/C: 138 % of control [7 of 10 alive]
dose: 64.0 mg/kg/injection, schedule: Q03HX008 (ip), vehicle: Klucel (hydroxypropylcellulose) (HPC)
  survivor count: 0 of 10
dose: 64.0 mg/kg/injection, schedule: Q03HX016 (ip), vehicle: Klucel (hydroxypropylcellulose) (HPC)
  survivor count: 0 of 10
dose: 64.0 mg/kg/injection, schedule: Q03HX024 (ip), vehicle: Klucel (hydroxypropylcellulose) (HPC)
  survivor count: 0 of 10
dose: 64.0 mg/kg/injection, schedule: Q04DX003 (ip), vehicle: Klucel (hydroxypropylcellulose) (HPC)
  T/C: 137 % of control [8 of 10 alive]
dose: 64.0 mg/kg/injection, schedule: Q08DX002 (ip), vehicle: Klucel (hydroxypropylcellulose) (HPC)
  T/C: 137 % of control [7 of 10 alive]
[1]
  survivor count: 2 of 6
[2]
  T/C: 136 % of control
dose: 128.0 mg/kg/injection, schedule: Q01DX009 (ip), vehicle: Klucel (hydroxypropylcellulose) (HPC)
  survivor count: 2 of 10
dose: 128.0 mg/kg/injection, schedule: Q03HX008 (ip), vehicle: Klucel (hydroxypropylcellulose) (HPC)
  survivor count: 0 of 10
dose: 128.0 mg/kg/injection, schedule: Q04DX003 (ip), vehicle: Klucel (hydroxypropylcellulose) (HPC)
  survivor count: 5 of 10
dose: 128.0 mg/kg/injection, schedule: Q08DX002 (ip), vehicle: Klucel (hydroxypropylcellulose) (HPC)
  survivor count: 6 of 10
dose: 256.0 mg/kg/injection, schedule: Q01DX001 (ip), vehicle: Klucel (hydroxypropylcellulose) (HPC)
  survivor count: 0 of 10
dose: 256.0 mg/kg/injection, schedule: Q04DX003 (ip), vehicle: Klucel (hydroxypropylcellulose) (HPC)
  survivor count: 0 of 10
dose: 256.0 mg/kg/injection, schedule: Q08DX002 (ip), vehicle: Klucel (hydroxypropylcellulose) (HPC)
  survivor count: 0 of 10
dose: 512.0 mg/kg/injection, schedule: Q01DX001 (ip), vehicle: Klucel (hydroxypropylcellulose) (HPC)
  survivor count: 0 of 10
dose: 512.0 mg/kg/injection, schedule: Q04DX003 (ip), vehicle: Klucel (hydroxypropylcellulose) (HPC)
  survivor count: 0 of 10
dose: 512.0 mg/kg/injection, schedule: Q08DX002 (ip), vehicle: Klucel (hydroxypropylcellulose) (HPC)
  survivor count: 0 of 10
dose: 1024.0 mg/kg/injection, schedule: Q01DX001 (ip), vehicle: Klucel (hydroxypropylcellulose) (HPC)
  survivor count: 0 of 10

## CS(=O)(=O)OCCN(CCOS(C)(=O)=O)c1ccc(C(=O)O)cc1
dose: 12.5 mg/kg/injection, schedule: Q01DX009 (ip), vehicle: saline with Tween-80
  T/C: 145 % of control
[2]
  T/C: 140 % of control [5 of 6 alive]
[3]
  survivor count: 5 of 6
dose: 200.0 mg/kg/injection, schedule: Q04DX003 (ip), vehicle: saline with Tween-80
  T/C: 140 and 140 % of control [4 of 6 alive]
dose: 300.0 mg/kg/injection, schedule: Q04DX003 (ip), vehicle: saline with Tween-80
  survivor count: 5 of 6
dose: 400.0 mg/kg/injection, schedule: Q04DX003 (ip), vehicle: saline with Tween-80
  survivor count: 5 of 6

## CCOC(=O)N1C(C(=O)c2ccc(C)cc2)N(C2CCCCC2)C(c2ccccc2)N1C(=O)OCC (configuration not stated)
dose: 100.0 mg/kg/injection, schedule: Q01DX009 (ip), vehicle: saline with Tween-80
  survivor count: 6 of 6
[3]
  survivor count: 6 of 6

## C[C@]12CC[C@H](O)C=C1CC[C@@H]1[C@@H]2CC[C@]2(C)C(c3ccc(=O)oc3)CC[C@]12O (some centres not stated)
dose: 100.0 mg/kg/injection, schedule: Q01DX009 (ip), vehicle: Klucel (hydroxypropylcellulose) (HPC)
  survivor count: 0 of 6
dose: 200.0 mg/kg/injection, schedule: Q01DX009 (ip), vehicle: Klucel (hydroxypropylcellulose) (HPC)
  survivor count: 0 of 6
dose: 400.0 mg/kg/injection, schedule: Q01DX009 (ip), vehicle: Klucel (hydroxypropylcellulose) (HPC)
  survivor count: 0 of 6

## CN=C(N)N/N=C/COc1ccc(C)cc1
dose: 240.0 mg/kg/injection, schedule: Q01DX005 (ip), vehicle: saline
  survivor count: 0 of 6

## Cc1ccc(S(=O)(=O)NCCCCCCNS(=O)(=O)c2ccc(C)cc2)cc1
dose: 100.0 mg/kg/injection, schedule: Q01DX005 (ip), vehicle: Klucel (hydroxypropylcellulose) (HPC)
  survivor count: 6 of 6
dose: 400.0 mg/kg/injection, schedule: Q01DX005 (ip), vehicle: Klucel (hydroxypropylcellulose) (HPC)
  survivor count: 5 of 6 and 6 of 6

## Cc1c(C(N)=O)c2ccccc2c2ccccc12
dose: 100.0 mg/kg/injection, schedule: Q01DX005 (ip), vehicle: saline with Tween-80
  survivor count: 4 of 5
[4]
  survivor count: 5 of 5

## Cc1cc(C)n(-c2ccc(S(=O)(=O)N3CC(=O)N(c4ccccc4)C3=S)cc2)n1
[4]
  survivor count: 6 of 6

## CN(C)c1ccc2[nH]cc(C(=O)O)c(=O)c2c1
dose: 60.0 mg/kg/injection, schedule: Q01DX005 (ip), vehicle: Klucel (hydroxypropylcellulose) (HPC)
  survivor count: 3 of 6
dose: 120.0 mg/kg/injection, schedule: Q01DX005 (ip), vehicle: Klucel (hydroxypropylcellulose) (HPC)
  survivor count: 5 of 6
dose: 240.0 mg/kg/injection, schedule: Q01DX005 (ip), vehicle: Klucel (hydroxypropylcellulose) (HPC)
  survivor count: 3 of 6

## COC1=CC(=O)C(=O)C=C1C(C)(C)C
dose: 90.0 mg/kg/injection, schedule: Q01DX005 (ip), vehicle: saline with Tween-80
  survivor count: 4 of 6
dose: 180.0 mg/kg/injection, schedule: Q01DX005 (ip), vehicle: saline with Tween-80
  survivor count: 0 of 6

## CCCCCCCCCCCC(=O)OCCN(CCOC(=O)CCCCCCCCCCC)C(=O)COC(=O)CCCCCCCCCCC
dose: 50.0 mg/kg/injection, schedule: Q01DX009 (ip), vehicle: saline + Tween-80 + alcohol
  survivor count: 5 of 6

## O=S1(=O)c2ccccc2N(c2ccccc2)c2nnc(COc3ccccc3)n21
[4]
  survivor count: 6 of 6

## CCCCCC(CN(C)C)C(O)/C=C/c1ccc(Cl)cc1Cl (configuration not stated)
dose: 50.0 mg/kg/injection, schedule: Q01DX009 (ip), vehicle: saline
  survivor count: 4 of 6
[1]
  survivor count: 0 of 6
dose: 200.0 mg/kg/injection, schedule: Q01DX009 (ip), vehicle: saline
  survivor count: 0 of 6
